From US9669016B2, “Antiparasitic effect of Bis[3,5-Bis(Benzylidene)-4-Oxo-1-Piperidinyl]amide Derivatives” (priority 2014, dated 2017)

Tests used:
[1] = test system: T. cruzi epimastigotes; test: Viability assay (Alamar Blue) on T. cruzi epimastigotes; assay type: cell-based, Trypanosoma cruzi; conditions: for T. cruzi Epimastigotes TI (Therapeutic Index): (IC50 in Hs27 human fibroblasts)/(EC50 in parasites)
Experimental: Viability assay on mammalian cells and T. cruzi epimastigotes. The cytotoxicity and anti-trypanosomal activity of the NC compounds was tested in human Hs27 fibroblasts (ATCC CRL-1634), LLC-MK2 cells (ATCC CCL-7), RAW 264.7 murine macrophages (ATCC TIB71) (American Type Culture Collection-ATCC, Manassa, Va.), mice intraperitoneal macrophages and in epimastigote forms of T. cruzi Y strain using Alamar Blue assay (Invitrogen—Life Technology, Grand Island, N.Y.). The experiments were performed as described using a range of concentration of 500 μM to 1 nM.

[2] = test system: Leishmania major promastigotes; test: Luciferase survival assay on L. major promastigotes; assay type: cell-based; conditions: for L. major Promastigotes TI (Therapeutic Index): (IC50 in Hs27 human fibroblasts)/(EC50 in parasites)
Experimental: Evaluation of the NC library activity against Leishmania major. The NC library (136 compounds) was screened using firefly luciferase-expressing L. major promastigotes referred to as Lmj-FV1-LUC-TK (L. major strain Friedlin (MHOM/JL/80/Friedlin) clone V1) engineered to express luciferase following integration of the construct pIR1SAT-LUC(a)-TK(b) (strain B5113) in the rRNA locus (S. M. Hickerson and S. M. Beverley, unpublished data). Enones (stock solutions in DMSO) were diluted (1 nM to 500 μM, in a final 1% DMSO) and added (1 μl per well) to 96-well microplates using an Eppendorf epMotion 5070 automated pipetting system. Promastigotes (10^6/well) were added, and parasite survival was assessed by luciferase activity with the substrate 5′-fluoroluciferin (ONE-Glo Luciferase Assay System, Promega) after 96-h incubation at 28° C., using a luminometer (Luminoskan, Thermo). The bioluminescent intensity was a direct measure of the survival of parasites. This was determined by comparing bioluminescent intensity of L. major parasites live/dead with MTT assay and cell counting. The primary compound screens were performed as single wells.

Compound: O=C1/C(=C/c2ccccc2)CN(C(=O)C(=O)N2C/C(=C\c3ccccc3)C(=O)/C(=C/c3ccccc3)C2)C/C1=C\c1ccccc1 [NC2459]
- T. cruzi Epimastigotes TI (Therapeutic Index) [1]: 500
- L. major Promastigotes TI (Therapeutic Index) [2]: 500
- fold difference between the EC50 of the parasites and the IC50 of all mammalian cell lines ([2]; all mammalian cell types tested): ≥ 100 fold

Compound: CN(C)CC1CCCC(CN(C)C)C1=O (centres unmarked) [NC901]
- T. cruzi Epimastigotes TI (Therapeutic Index) [1]: 34.19
- L. major Promastigotes TI (Therapeutic Index) [2]: 35

Compound: CN(C)CC1CCC(CN(C)C)C1=O (centres unmarked) [NC884]
- T. cruzi Epimastigotes TI (Therapeutic Index) [1]: 33.7
- fold difference in toxicity against T. cruzi (Y strain) as in L. major ([1]; epimastigotes vs L. major promastigotes): greater than 2 fold
- L. major Promastigotes TI (Therapeutic Index) [2]: 14.2
